Assay results from the supplement of paper PMC8728848.
This is one part of the list.

Assays:
Assay in all cases: glycan array binding signal (z-score within array); higher = stronger binding
Settings in all cases: glycan notation: IUPAC condensed, linker removed
[1] = target: Fuc(a1-3)GlcNAc
Summary of the method: (§1)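 Glycan array data came from 3228 arrays in the Consortium for Functional Glycomics database, and only arrays with an available protein sequence were kept. Glycan names were put into IUPAC-condensed notation, and columns mapping to the same glycan were averaged. The binding signal is a within-array Z-score, averaged across arrays of one protein sequence run at different concentrations or buffers and across linkers. A negative Z-score can be read as non-binding.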

[2] = target: Fuc(a1-3)[Gal(b1-4)]Glc6S
Summary of the method: as §1

[3] = target: Fuc(a1-3)[Gal(b1-4)]GlcNAc
Summary of the method: as §1

[4] = target: Fuc(a1-3)[Gal(b1-4)]GlcNAc(b1-2)Man
Summary of the method: as §1

[5] = target: Fuc(a1-3)[Gal(b1-4)]GlcNAc(b1-2)Man(a1-3)[Fuc(a1-3)[Gal(b1-4)]GlcNAc(b1-2)Man(a1-6)]Man(b1-4)GlcNAc(b1-4)GlcNAc
Summary of the method: as §1

[6] = target: Fuc(a1-3)[Gal(b1-4)]GlcNAc(b1-2)Man(a1-3)[Fuc(a1-3)[Gal(b1-4)]GlcNAc(b1-2)Man(a1-6)]Man(b1-4)GlcNAc(b1-4)[Fuc(a1-6)]GlcNAc
Summary of the method: as §1

[7] = target: Fuc(a1-3)[Gal(b1-4)]GlcNAc(b1-3)Gal(b1-3)[Fuc(a1-4)]GlcNAc
Summary of the method: as §1

[8] = target: Fuc(a1-3)[Gal(b1-4)]GlcNAc(b1-3)Gal(b1-4)[Fuc(a1-3)]GlcNAc
Summary of the method: as §1

[9] = target: Fuc(a1-3)[Gal(b1-4)]GlcNAc(b1-3)Gal(b1-4)[Fuc(a1-3)]GlcNAc(b1-3)Gal(b1-4)[Fuc(a1-3)]GlcNAc
Summary of the method: as §1

[10] = target: Fuc(a1-3)[Gal(b1-4)]GlcNAc(b1-3)GalNAc
Summary of the method: as §1

[11] = target: Fuc(a1-3)[Gal(b1-4)]GlcNAc(b1-6)GalNAc
Summary of the method: as §1

[12] = target: Fuc(a1-3)[Gal(b1-4)]GlcNAc(b1-6)[Gal(b1-3)GlcNAc(b1-3)]Gal(b1-4)Glc
Summary of the method: as §1

[13] = target: Fuc(a1-3)[Gal(b1-4)]GlcNAc6S
Summary of the method: as §1

[14] = target: Fuc(a1-3)[Gal3S(b1-4)]Glc
Summary of the method: as §1

[15] = target: Fuc(a1-3)[Gal3S(b1-4)]GlcNAc
Summary of the method: as §1

[16] = target: Fuc(a1-3)[Gal3S(b1-4)]GlcNAc6S
Summary of the method: as §1

[17] = target: Fuc(a1-3)[GalNAc(b1-4)]GlcNAc
Summary of the method: as §1

[18] = target: Fuc(a1-3)[GalNAc(b1-4)]GlcNAc6S
Summary of the method: as §1

[19] = target: Fuc(a1-4)GlcNAc
Summary of the method: as §1

[20] = target: Fuc(b1-3)GlcNAc
Summary of the method: as §1

[21] = target: Gal(a1-2)Gal
Summary of the method: as §1

[22] = target: Gal(a1-3)Gal
Summary of the method: as §1

[23] = target: Gal(a1-3)Gal(b1-3)GlcNAc
Summary of the method: as §1

[24] = target: Gal(a1-3)Gal(b1-3)GlcNAc(b1-2)Man
Summary of the method: as §1

[25] = target: Gal(a1-3)Gal(b1-3)GlcNAc(b1-2)Man(a1-3)[Gal(a1-3)Gal(b1-3)GlcNAc(b1-2)Man(a1-6)]Man(b1-4)GlcNAc(b1-4)GlcNAc
Summary of the method: as §1

[26] = target: Gal(a1-3)Gal(b1-3)GlcNAc(b1-3)GalNAc
Summary of the method: as §1

[27] = target: Gal(a1-3)Gal(b1-3)GlcNAc(b1-6)GalNAc
Summary of the method: as §1

[28] = target: Gal(a1-3)Gal(b1-3)[Fuc(a1-4)]GlcNAc(b1-2)Man(a1-3)[Gal(a1-3)Gal(b1-3)[Fuc(a1-4)]GlcNAc(b1-2)Man(a1-6)]Man(b1-4)GlcNAc(b1-4)GlcNAc
Summary of the method: as §1

[29] = target: Gal(a1-3)Gal(b1-4)Glc
Summary of the method: as §1

[30] = target: Gal(a1-3)Gal(b1-4)GlcNAc
Summary of the method: as §1

[31] = target: Gal(a1-3)Gal(b1-4)GlcNAc(b1-2)Man
Summary of the method: as §1

[32] = target: Gal(a1-3)Gal(b1-4)GlcNAc(b1-2)Man(a1-3)[Gal(a1-3)Gal(b1-4)GlcNAc(b1-2)Man(a1-6)]Man(b1-4)GlcNAc(b1-4)GlcNAc
Summary of the method: as §1

[33] = target: Gal(a1-3)Gal(b1-4)GlcNAc(b1-3)GalNAc
Summary of the method: as §1

[34] = target: Gal(a1-3)Gal(b1-4)GlcNAc(b1-6)GalNAc
Summary of the method: as §1

[35] = target: Gal(a1-3)Gal(b1-4)[Fuc(a1-3)]GlcNAc
Summary of the method: as §1

[36] = target: Gal(a1-3)Gal(b1-4)[Fuc(a1-3)]GlcNAc(b1-2)Man(a1-3)[Gal(a1-3)Gal(b1-4)[Fuc(a1-3)]GlcNAc(b1-2)Man(a1-6)]Man(b1-4)GlcNAc(b1-4)GlcNAc
Summary of the method: as §1

[37] = target: Gal(a1-3)GalNAc
Summary of the method: as §1

B1: PX9961M-bvu-482-23-482 (Bacteroides vulgatus) (protein)
chain: WLDLAPSTQVDTETSINVLSDIEFTLNGIYSTMQSSDAYSGRLVYYGDVTGDDMQAVSSTKRTGNYYRFNFTKDNGPSSHWSYLYSIIQNCNLILMNVDKLSIDEDETEYKNDLKGQALAIRGMALFDLTRIFGYPYLKDNGASLGVPIVKELSTIDSKPARNTVAECYTEIISDLKNSTELLSGDFNKGKVNRWAAMTLLSRVYLYKGEYNEALTMAENAIKGAEKEGYALWTNEEYPTAWGNDASASNPGEILFEIVNLTTDSPGKESMGYLNSYNGYDDMCITCSFYQLLKKDPKDVRLKILSFDKKYYAYVNKYQPQQGENITDANIPLIRLSEAYLNAAEAAVQTGDNAKAVKYLNSIVQRANPENSVEGKTLTLENVLDERRKELVAEGHRMYDVIRNGMTVKRIDVKDSDINKTKHNTAYMEYDWNFHKILLPIPKKEMDANPNMKQNPGYVD
[1]
  glycan array binding signal (z-score): -0.637
[2]
  glycan array binding signal (z-score): -0.15
[3]
  glycan array binding signal (z-score): -0.692
[4]
  glycan array binding signal (z-score): -0.391
[5]
  glycan array binding signal (z-score): -0.441
[6]
  glycan array binding signal (z-score): 1.97
[7]
  glycan array binding signal (z-score): -0.631
[8]
  glycan array binding signal (z-score): -0.327
[9]
  glycan array binding signal (z-score): 0.335
[10]
  glycan array binding signal (z-score): -0.016
[11]
  glycan array binding signal (z-score): -0.457
[12]
  glycan array binding signal (z-score): 0.141
[13]
  glycan array binding signal (z-score): -0.74
[14]
  glycan array binding signal (z-score): -0.445
[15]
  glycan array binding signal (z-score): 0.504
[16]
  glycan array binding signal (z-score): -0.788
[17]
  glycan array binding signal (z-score): 0.771
[18]
  glycan array binding signal (z-score): -0.542
[19]
  glycan array binding signal (z-score): 0.856
[20]
  glycan array binding signal (z-score): -0.445
[21]
  glycan array binding signal (z-score): -0.332
[22]
  glycan array binding signal (z-score): -0.668
[23]
  glycan array binding signal (z-score): 1.37
[24]
  glycan array binding signal (z-score): -0.071
[25]
  glycan array binding signal (z-score): -0.261
[26]
  glycan array binding signal (z-score): -0.339
[27]
  glycan array binding signal (z-score): -0.479
[28]
  glycan array binding signal (z-score): 0.327
[29]
  glycan array binding signal (z-score): -0.347
[30]
  glycan array binding signal (z-score): -0.37
[31]
  glycan array binding signal (z-score): -0.696
[32]
  glycan array binding signal (z-score): 0.825
[33]
  glycan array binding signal (z-score): -0.454
[34]
  glycan array binding signal (z-score): 0.342
[35]
  glycan array binding signal (z-score): 0.455
[36]
  glycan array binding signal (z-score): -0.324
[37]
  glycan array binding signal (z-score): -0.738
